# According to the supplement of paper PMC9135407:
# Several values for one entry are separate records, joined by “and”; a condition that tells them apart may be missing. Equal entries are not always repeated. Structures can show the parent of a compound that is named as a salt. ± gives the standard deviation of the averaged measurements. This is one part of the list. Baselines shift from plate to plate; read single values as rough.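 Culture-activated primary human stellate myofibroblasts, where regained lipid droplets signal inactivation. Value: share of Hoechst-counted cells above a per-plate Bodipy cutoff, in duplicate wells, with DMSO negative and nortriptyline positive controls on each plate. Hits: a control-normalized score above the plate's top-tenth-percentile nortriptyline wells, or one of a plate's three best wells. Final well concentrations are not given.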
# Test system: primary human hepatic stellate cells (donor 1)
# Assay: percent Bodipy-positive cells; higher = more lipid droplet accumulation
# Settings: 48 h
# [1] = library stock concentration: 10 mM
# [2] = library stock concentration: 80 uM
# [3] = library stock concentration: 400 uM
# [4] = library stock concentration: 2 mM
# [5] = library stock concentration: 1 mM
# [6] = library stock concentration: 3.33 mM
structure (smiles),measurement,setting,value
N[C@@H](C(=O)N[C@@H]1C(=O)N2C(C(=O)O)=C(Cl)CS[C@H]12)c1ccccc1 [Cefaclor],percent Bodipy-positive cells,,26.2 ± 7.6%
same,percent Bodipy-positive cells,library stock concentration: 5.4 mM,21.6 ± 2.1%
same,percent Bodipy-positive cells,[1],34.1% and 18.6%
N[C@@H](C(=O)N[C@@H]1C(=O)N2C(C(=O)O)=C(Cl)CS[C@H]12)c1ccccc1,percent Bodipy-positive cells,[1],5.68 ± 0.8%
C[C@]12CC[C@@H]3c4ccc(O)cc4CC[C@H]3[C@@H]1C[C@H](O)[C@@H]2O,percent Bodipy-positive cells,[1],36.3 ± 3.2%
Fc1cc(-c2ccnc(Nc3ccc(-n4cnc(N5CCOCC5)n4)cc3)n2)cc(N2CCOCC2)c1,percent Bodipy-positive cells,[2],54.8 ± 11%
same,percent Bodipy-positive cells,[3],68.1 ± 2.2%
same,percent Bodipy-positive cells,[4],36.3 ± 10%
same,percent Bodipy-positive cells,[1],48.8 ± 1.6%
CCCCC/C=C\C/C=C\C/C=C\C/C=C\CCCC(=O)OC(CO)CO [2-Arachidonoyl Glycerol],percent Bodipy-positive cells,[5],9.03 ± 0.55%
CCCCC/C=C\C/C=C\C/C=C\C/C=C\CCCC(=O)OC(CO)CO [2-Arachidonoylglycerol],percent Bodipy-positive cells,[5],7.22 ± 3%
NOCC(=O)O [O-(Carboxymethyl)hydroxylamine hemihydrochloride],percent Bodipy-positive cells,[1],39.2 ± 11%
Cl.Clc1ccc(CCCOCCCN2CCCCC2)cc1,percent Bodipy-positive cells,[1],66.9 ± 2%
CNC(=O)[C@H](Cc1ccccc1)NC(=O)[C@H](CC(C)C)[C@H](CSc1cccs1)C(=O)NO [Batimastat (BB-94)],percent Bodipy-positive cells,[6],30.8 ± 5.6%
same,percent Bodipy-positive cells,[1],29.19 ± 0.16%
CNCCC(Oc1ccc(C(F)(F)F)cc1)c1ccccc1.Cl (stereo unspecified) [Fluoxetine HCl],percent Bodipy-positive cells,[6],77.5 ± 5.7%
same,percent Bodipy-positive cells,[1],86.1 ± 8.9%
CCCCC[C@H](O)C/C=C1/C(=O)C=C[C@@H]1C/C=C\CCCC(=O)O [D12-Prostaglandin J2],percent Bodipy-positive cells,[5],7.05 ± 6.6%
CS(=O)(=O)CCNCc1ccc(-c2ccc3ncnc(Nc4ccc(OCc5cccc(F)c5)c(Cl)c4)c3c2)o1.Cc1ccc(S(=O)(=O)O)cc1.Cc1ccc(S(=O)(=O)O)cc1,percent Bodipy-positive cells,[6],98.18 ± 0.32%
same,percent Bodipy-positive cells,[1],99.57 ± 0.35%
Cn1nnnc1SCC1=C(C(=O)O)N2C(=O)[C@@H](NC(=O)[C@H](OC=O)c3ccccc3)[C@H]2SC1 [Cefamandole nafate],percent Bodipy-positive cells,[1],27.7 ± 7.5%
CO/N=C(\C(=O)N[C@@H]1C(=O)N2C(C(=O)O)=C(C[N+]3(C)CCCC3)CS[C@H]12)c1csc(N)n1 [Cefepime hydrochloride],percent Bodipy-positive cells,,10.5 ± 5.9%
CCOC(=O)[C@H](CCc1ccccc1)N[C@@H](C)C(=O)N1CCC[C@H]1C(=O)O [Enalapril maleate],percent Bodipy-positive cells,,24.707 ± 0.023%
same,percent Bodipy-positive cells,[1],24.4 ± 3.9%
CCOC(=O)[C@H](CCc1ccccc1)N[C@@H](C)C(=O)N1CCC[C@H]1C(=O)O [Enalapril],percent Bodipy-positive cells,library stock concentration: 5.3 mM,8.99 ± 0.59%
CCOC(=O)[C@H](CCc1ccccc1)N[C@@H](C)C(=O)N1CCC[C@H]1C(=O)O [Enalapril Maleate],percent Bodipy-positive cells,[6],11.8 ± 2.1%
same,percent Bodipy-positive cells,[1],20.5 ± 12%
CCOC(=O)[C@H](CCc1ccccc1)N[C@@H](C)C(=O)N1CCC[C@H]1C(=O)O,percent Bodipy-positive cells,[1],54.2 ± 20%
O=C1CC2(CCCC2)CC(=O)N1CCNCC1COc2ccccc2O1 (stereo unspecified),percent Bodipy-positive cells,[1],11.9% and 9.36%
NC[C@@H]1O[C@H](c2ccccc2)Cc2c1ccc(O)c2O,percent Bodipy-positive cells,[1],26.9 ± 0.72%
CCCCC[C@H](O)/C=C/[C@H]1[C@H](O)CC(=O)[C@@H]1C/C=C\CCCC(=O)NC(CO)CO [Prostaglandin E2 serinol amide],percent Bodipy-positive cells,[5],13 ± 3.4%
CCCCC(=O)O[C@]1(C(=O)CO)CC[C@H]2[C@@H]3CCC4=CC(=O)CC[C@]4(C)[C@H]3[C@@H](O)C[C@@]21C [Westcort],percent Bodipy-positive cells,[1],20.7 ± 3.5%
CCCCC(=O)O[C@]1(C(=O)CO)CC[C@H]2[C@@H]3CCC4=CC(=O)CC[C@]4(C)[C@H]3[C@@H](O)C[C@@]21C [Hydrocortisone valerate],percent Bodipy-positive cells,library stock concentration: 4.5 mM,12.6 ± 10%
CCC[C@H](NC(=O)[C@@H]1[C@H]2CCC[C@H]2CN1C(=O)[C@@H](NC(=O)[C@@H](NC(=O)c1cnccn1)C1CCCCC1)C(C)(C)C)C(=O)C(=O)NC1CC1 [Telaprevir (VX-950)],percent Bodipy-positive cells,[6],9.22 ± 1%
same,percent Bodipy-positive cells,[1],19.5 ± 5.6%
Cc1noc(NS(=O)(=O)c2ccc(N)cc2)c1C [Sulfisoxazole],percent Bodipy-positive cells,,21.4 ± 2.8%
same,percent Bodipy-positive cells,[6],9.48 ± 3.9%
same,percent Bodipy-positive cells,library stock concentration: 7.5 mM,11.9 ± 5.4%
same,percent Bodipy-positive cells,[1],12.3% and 5.1% and 20.9%
CCc1cccc2c3c([nH]c12)C(CC)(CC(=O)O)OCC3 (stereo unspecified) [Etodolac],percent Bodipy-positive cells,,24.2 ± 11%
same,percent Bodipy-positive cells,[6],11.5 ± 5.9%
same,percent Bodipy-positive cells,library stock concentration: 7 mM,12.1 ± 0.32%
same,percent Bodipy-positive cells,[1],31.7% and 19% and 30.8%
CC[N+](CC)(CC)CCC(O)(c1ccccc1)C1CCCCC1 (stereo unspecified) [Tridihexethyl chloride],percent Bodipy-positive cells,,8.15 ± 2%
OCC(O)C(O)CO (stereo unspecified) [Erythritol],percent Bodipy-positive cells,[6],19.3 ± 2.2%
same,percent Bodipy-positive cells,[1],35.43 ± 0.35%
C[C@@H]1CN(CC(=O)Nc2ccc3c(c2)Cc2cccc(-c4cc(=O)cc(N5CCOCC5)o4)c2S3)C[C@H](C)O1,percent Bodipy-positive cells,[2],11.1 ± 2.5%
same,percent Bodipy-positive cells,[3],10.4 ± 3.8%
same,percent Bodipy-positive cells,[4],12.7 ± 2%
same,percent Bodipy-positive cells,[6],12.8 ± 6.6%
same,percent Bodipy-positive cells,[1],29.3% and 27.9%
CO[C@H]1C=C[C@@]23c4cc5c(cc4CN(C[C@@H]2O)[C@H]3C1)OCO5 [Crinamine],percent Bodipy-positive cells,[1],79.64 ± 0.17%
C[C@]12CC[C@@H]3c4ccc(O)cc4CC[C@H]3[C@@H]1C[C@@H](O)[C@@H]2O [Estriol],percent Bodipy-positive cells,,6.45 ± 1.6%
same,percent Bodipy-positive cells,[6],8.78 ± 0.82%
same,percent Bodipy-positive cells,library stock concentration: 6.9 mM,7.2% and 3.25%
same,percent Bodipy-positive cells,[1],6.5% and 7.75%
CN(C)CCCO[C@@H]1[C@H]2OC(C)(C)O[C@H]2O[C@@H]1[C@H](O)CO [Amiprilose hydrochloride],percent Bodipy-positive cells,,8.52 ± 3.9%
CN(C)CCCO[C@@H]1[C@H]2OC(C)(C)O[C@H]2O[C@@H]1[C@H](O)CO [Amiprilose],percent Bodipy-positive cells,library stock concentration: 5.9 mM,21 ± 2%
same,percent Bodipy-positive cells,[1],27.3 ± 14%
Cc1nc(N)sc1-c1ccnc(Nc2ccc(N3CCOCC3)cc2)n1,percent Bodipy-positive cells,[3],22.2 ± 0.41%
same,percent Bodipy-positive cells,[4],48.7 ± 21%
same,percent Bodipy-positive cells,[6],42.9 ± 27%
C=CC(=O)Nc1ccc2ncnc(Nc3ccc(OCc4cccc(F)c4)c(Cl)c3)c2c1,percent Bodipy-positive cells,[2],6.01 ± 2.4%
same,percent Bodipy-positive cells,[3],8.22 ± 0.4%
same,percent Bodipy-positive cells,[4],6.42 ± 0.76%
same,percent Bodipy-positive cells,[6],18.7 ± 0.86%
same,percent Bodipy-positive cells,[1],50.1% and 71.2%
CCCCC[C@H](O)/C=C/C=C\C=C\C=C\[C@@H](O)[C@@H](O)CCCC(=O)O [Lipoxin A4],percent Bodipy-positive cells,library stock concentration: 100 uM,10.6 ± 9.4%
CC1=C(CC(=O)O)c2cc(F)ccc2/C1=C\c1ccc([S+](C)[O-])cc1 (stereo unspecified) [Sulindac],percent Bodipy-positive cells,,36.2 ± 16%
same,percent Bodipy-positive cells,[5],10.4 ± 2%
same,percent Bodipy-positive cells,[6],7.54 ± 0.69%
CC(Oc1c(Cl)cccc1Cl)C1=NCCN1 (stereo unspecified) [Lofexidine],percent Bodipy-positive cells,library stock concentration: 7.7 mM,11.3 ± 2.9%
C=CC(=O)N1CCC[C@@H](n2nc(-c3ccc(Oc4ccccc4)cc3)c3c(N)ncnc32)C1,percent Bodipy-positive cells,[2],18.9 ± 11%
same,percent Bodipy-positive cells,[3],40.6 ± 0.97%
same,percent Bodipy-positive cells,[4],21.3 ± 5.2%
same,percent Bodipy-positive cells,[6],11.3 ± 1.3%
same,percent Bodipy-positive cells,[1],19.6% and 31.1%
CC(=O)N1CCN(CCOc2ccc(C3CCN(C4=Nn5c(nnc5C(F)(F)F)CC4)CC3)cc2)CC1,percent Bodipy-positive cells,[6],9.39 ± 0.47%
same,percent Bodipy-positive cells,[1],73.1 ± 23%
COc1ccc2cc1Oc1ccc(cc1)C[C@@H]1c3c(cc4c(c3Oc3cc5c(cc3OC)CCN(C)[C@H]5C2)OCO4)CCN1C [Cepharanthine],percent Bodipy-positive cells,[6],100%
CC(C)COC(=O)c1ccc(N)cc1,percent Bodipy-positive cells,[1],54.8 ± 16%

# 18 successive records already listed, for reference:
structure (smiles),measurement,setting,value
CN(C)CCCO[C@@H]1[C@H]2OC(C)(C)O[C@H]2O[C@@H]1[C@H](O)CO [Amiprilose],percent Bodipy-positive cells,library stock concentration: 5.9 mM,21 ± 2%
same,percent Bodipy-positive cells,[1],27.3 ± 14%
Cc1nc(N)sc1-c1ccnc(Nc2ccc(N3CCOCC3)cc2)n1,percent Bodipy-positive cells,[3],22.2 ± 0.41%
same,percent Bodipy-positive cells,[4],48.7 ± 21%
same,percent Bodipy-positive cells,[6],42.9 ± 27%
C=CC(=O)Nc1ccc2ncnc(Nc3ccc(OCc4cccc(F)c4)c(Cl)c3)c2c1,percent Bodipy-positive cells,[2],6.01 ± 2.4%
same,percent Bodipy-positive cells,[3],8.22 ± 0.4%
same,percent Bodipy-positive cells,[4],6.42 ± 0.76%
same,percent Bodipy-positive cells,[6],18.7 ± 0.86%
same,percent Bodipy-positive cells,[1],50.1% and 71.2%
CCCCC[C@H](O)/C=C/C=C\C=C\C=C\[C@@H](O)[C@@H](O)CCCC(=O)O [Lipoxin A4],percent Bodipy-positive cells,library stock concentration: 100 uM,10.6 ± 9.4%
CC1=C(CC(=O)O)c2cc(F)ccc2/C1=C\c1ccc([S+](C)[O-])cc1 (stereo unspecified) [Sulindac],percent Bodipy-positive cells,,36.2 ± 16%
same,percent Bodipy-positive cells,[5],10.4 ± 2%
same,percent Bodipy-positive cells,[6],7.54 ± 0.69%
CC(Oc1c(Cl)cccc1Cl)C1=NCCN1 (stereo unspecified) [Lofexidine],percent Bodipy-positive cells,library stock concentration: 7.7 mM,11.3 ± 2.9%
C=CC(=O)N1CCC[C@@H](n2nc(-c3ccc(Oc4ccccc4)cc3)c3c(N)ncnc32)C1,percent Bodipy-positive cells,[2],18.9 ± 11%
same,percent Bodipy-positive cells,[3],40.6 ± 0.97%
same,percent Bodipy-positive cells,[4],21.3 ± 5.2%

# Reprinted from the entries so far for reference:
structure (smiles),measurement,setting,value
CCOC(=O)[C@H](CCc1ccccc1)N[C@@H](C)C(=O)N1CCC[C@H]1C(=O)O [Enalapril],percent Bodipy-positive cells,library stock concentration: 5.3 mM,8.99 ± 0.59%
CCOC(=O)[C@H](CCc1ccccc1)N[C@@H](C)C(=O)N1CCC[C@H]1C(=O)O [Enalapril Maleate],percent Bodipy-positive cells,[6],11.8 ± 2.1%
